PubChem BioAssay AID1224829, NIAID, 2016
Shown is one part, drawn at random, of about 3,800 deposited reagents. 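Calls cover raised and lowered translocation; gene median uses one vendor's three siRNAs; qiagen siRNAs acted more weakly than ambion siRNAs.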 The numbers tell different reagents against one gene apart.

- Aim: 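Follow-up of TLR4-NF-kappaB regulators using six separate siRNAs for each gene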 (follow-up of hits)
- System: mouse RAW264.7 G9 macrophage reporter cells
- Reagent: single siRNA against mouse genes, 100 nM
- Time to read-out: 2 days of siRNA knock-down, then 40 min of LPS before fixing
- Challenge: LPS (Salmonella minnesota R595) at 10 ng/ml
- Measured: 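High-content images after 40 min LPS exposure; GFP-p65 nucleus to surrounding ring signal ratio, normalised to plate median and non-targeting control wells, expressed as z-score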
- Scale: p65 translocation z-score and gene median z-score, per vendor: higher = more nuclear NF-kappaB p65 after LPS
- Rule for the call: 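Active means the replicate-mean z-score lies beyond plus or minus 2, in either direction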
- Meaning of the calls: active = changed p65 translocation (either direction); inactive = no clear change

gene	reagent no.	siRNA vendor or control pool	p65 translocation z-score, replicate mean	p65 translocation z-score, replicate 1	p65 translocation z-score, replicate 2	gene median z-score, per vendor	outcome
Pcdhgc4 (GeneID 93707)	1	ambion single siRNA	-1.73	-1.14	-2.31	-0.879	inactive
Pcdhgc4 (GeneID 93707)	2	ambion single siRNA	-0.309	-0.614	-0.00387	-0.879	inactive
Pcdhgc4 (GeneID 93707)	3	ambion single siRNA	0.000735	1.24	-1.24	-0.879	inactive
Pcdhgc4 (GeneID 93707)	4	qiagen single siRNA	5.82	3.41	8.23	0.471	active
Pcdhgc4 (GeneID 93707)	5	qiagen single siRNA	0.471	-0.0954	1.04	0.471	inactive
Pcdhgc4 (GeneID 93707)	6	qiagen single siRNA	-1.32	-0.967	-1.68	0.471	inactive
Gstm3 (GeneID 14864)	1	ambion single siRNA	0.468	-0.107	1.04	-0.241	inactive
Gstm3 (GeneID 14864)	2	ambion single siRNA	-0.0266	1.22	-1.28	-0.241	inactive
Gstm3 (GeneID 14864)	3	ambion single siRNA	-0.425	-0.474	-0.375	-0.241	inactive
Gstm3 (GeneID 14864)	4	qiagen single siRNA	1.83	0.64	3.01	0.554	inactive
Gstm3 (GeneID 14864)	5	qiagen single siRNA	1.43	0.469	2.4	0.554	inactive
Gstm3 (GeneID 14864)	6	qiagen single siRNA	-3.18	-3.29	-3.08	0.554	active
Mob3b (GeneID 214944)	1	ambion single siRNA	-0.487	-0.286	-0.689	-4.36	inactive
Mob3b (GeneID 214944)	2	ambion single siRNA	-5.57	-6.18	-4.96	-4.36	active
Mob3b (GeneID 214944)	3	ambion single siRNA	-5.11	-6.44	-3.77	-4.36	active
Opn4 (GeneID 30044)	1	ambion single siRNA	-4.24	-4.91	-3.57	-3.57	active
Opn4 (GeneID 30044)	2	ambion single siRNA	-2.78	-2.78		-3.57	active
Opn4 (GeneID 30044)	3	ambion single siRNA	-4.02	-6.27	-1.77	-3.57	active
Opn4 (GeneID 30044)	4	qiagen single siRNA	1.21	-0.174	2.6	-0.0865	inactive
Opn4 (GeneID 30044)	5	qiagen single siRNA	0.349	0.00113	0.697	-0.0865	inactive
Opn4 (GeneID 30044)	6	qiagen single siRNA	-1.03	-0.415	-1.65	-0.0865	inactive

3 neighbouring records from above, for reference:
gene	reagent no.	siRNA vendor or control pool	p65 translocation z-score, replicate mean	p65 translocation z-score, replicate 1	p65 translocation z-score, replicate 2	gene median z-score, per vendor	outcome
Opn4 (GeneID 30044)	4	qiagen single siRNA	1.21	-0.174	2.6	-0.0865	inactive
Opn4 (GeneID 30044)	5	qiagen single siRNA	0.349	0.00113	0.697	-0.0865	inactive
Opn4 (GeneID 30044)	6	qiagen single siRNA	-1.03	-0.415	-1.65	-0.0865	inactive

The list goes on.
gene	reagent no.	siRNA vendor or control pool	p65 translocation z-score, replicate mean	p65 translocation z-score, replicate 1	p65 translocation z-score, replicate 2	gene median z-score, per vendor	outcome
Lhfpl4 (GeneID 269788)	1	ambion single siRNA	0.154	0.311	-0.0035	-3.22	inactive
Lhfpl4 (GeneID 269788)	2	ambion single siRNA	-4.41	-5.79	-3.03	-3.22	active
Lhfpl4 (GeneID 269788)	3	ambion single siRNA	-3.4	-3.4	-3.4	-3.22	active
Lhfpl4 (GeneID 269788)	4	qiagen single siRNA	3.14	1.87	4.41	1.22	active
Lhfpl4 (GeneID 269788)	5	qiagen single siRNA	2.3	0.583	4.02	1.22	active
Lhfpl4 (GeneID 269788)	6	qiagen single siRNA	-3.56	-2.86	-4.25	1.22	active
Muc19 (GeneID 239611)	1	ambion single siRNA	-5.1	-5.1		-3.13	active
Muc19 (GeneID 239611)	2	ambion single siRNA	-1.48	-0.0462	-2.91	-3.13	inactive
Muc19 (GeneID 239611)	3	ambion single siRNA	-3.17	-3.22	-3.13	-3.13	active
Muc19 (GeneID 239611)	4	qiagen single siRNA	1.91	1.68	2.14	-1.05	inactive
Muc19 (GeneID 239611)	5	qiagen single siRNA	-1.05	-0.487	-1.61	-1.05	inactive
Muc19 (GeneID 239611)	6	qiagen single siRNA	-5.98	-3.36	-8.61	-1.05	active
Grk5 (GeneID 14773)	1	ambion single siRNA	-1.09	-1.12	-1.07	-1.81	inactive
Grk5 (GeneID 14773)	2	ambion single siRNA	-3.41	-3.58	-3.23	-1.81	active
Grk5 (GeneID 14773)	3	ambion single siRNA	-1.24	-2.51	0.0346	-1.81	inactive
Grk5 (GeneID 14773)	4	qiagen single siRNA	2.91	2.39	3.42	1.5	active
Grk5 (GeneID 14773)	5	qiagen single siRNA	-0.382	-1.51	0.75	1.5	inactive
Grk5 (GeneID 14773)	6	qiagen single siRNA	1.5	1.49	1.5	1.5	inactive
